{
  "sequences": {"note": "Amino acid sequences for entries named in this document (tags omitted). A change or cut given only in a name is not applied to a line headed by its entry. Chains listed by the source or under a name are the forms on record and can include a tag or linker. Residues count along the entry.", "UniProt F1LW30, residues 46-956": "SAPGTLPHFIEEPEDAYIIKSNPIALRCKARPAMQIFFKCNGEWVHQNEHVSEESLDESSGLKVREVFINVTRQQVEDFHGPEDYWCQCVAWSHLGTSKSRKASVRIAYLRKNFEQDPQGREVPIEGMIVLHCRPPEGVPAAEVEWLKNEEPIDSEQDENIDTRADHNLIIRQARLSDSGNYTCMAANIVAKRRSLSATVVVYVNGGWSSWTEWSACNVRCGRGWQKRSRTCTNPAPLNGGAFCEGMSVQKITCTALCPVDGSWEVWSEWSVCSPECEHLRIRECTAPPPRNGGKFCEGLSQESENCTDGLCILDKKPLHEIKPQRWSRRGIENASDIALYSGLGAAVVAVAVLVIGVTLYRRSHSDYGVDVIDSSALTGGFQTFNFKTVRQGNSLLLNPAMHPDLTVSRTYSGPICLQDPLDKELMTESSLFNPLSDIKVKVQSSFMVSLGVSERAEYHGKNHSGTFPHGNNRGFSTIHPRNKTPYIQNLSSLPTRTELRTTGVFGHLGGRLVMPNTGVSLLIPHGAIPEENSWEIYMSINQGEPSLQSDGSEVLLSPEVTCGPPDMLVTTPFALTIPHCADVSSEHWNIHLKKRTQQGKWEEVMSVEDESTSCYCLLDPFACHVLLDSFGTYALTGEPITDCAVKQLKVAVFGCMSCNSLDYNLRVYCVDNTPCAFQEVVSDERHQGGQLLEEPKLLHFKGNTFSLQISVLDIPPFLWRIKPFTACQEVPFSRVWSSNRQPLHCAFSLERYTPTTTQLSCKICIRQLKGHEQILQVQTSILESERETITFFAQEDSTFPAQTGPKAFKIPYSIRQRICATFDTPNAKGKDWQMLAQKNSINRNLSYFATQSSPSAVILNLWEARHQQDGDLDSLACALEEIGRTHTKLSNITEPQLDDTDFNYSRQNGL", "Myc-Lphn3-mV (Q80TS3, form named)": "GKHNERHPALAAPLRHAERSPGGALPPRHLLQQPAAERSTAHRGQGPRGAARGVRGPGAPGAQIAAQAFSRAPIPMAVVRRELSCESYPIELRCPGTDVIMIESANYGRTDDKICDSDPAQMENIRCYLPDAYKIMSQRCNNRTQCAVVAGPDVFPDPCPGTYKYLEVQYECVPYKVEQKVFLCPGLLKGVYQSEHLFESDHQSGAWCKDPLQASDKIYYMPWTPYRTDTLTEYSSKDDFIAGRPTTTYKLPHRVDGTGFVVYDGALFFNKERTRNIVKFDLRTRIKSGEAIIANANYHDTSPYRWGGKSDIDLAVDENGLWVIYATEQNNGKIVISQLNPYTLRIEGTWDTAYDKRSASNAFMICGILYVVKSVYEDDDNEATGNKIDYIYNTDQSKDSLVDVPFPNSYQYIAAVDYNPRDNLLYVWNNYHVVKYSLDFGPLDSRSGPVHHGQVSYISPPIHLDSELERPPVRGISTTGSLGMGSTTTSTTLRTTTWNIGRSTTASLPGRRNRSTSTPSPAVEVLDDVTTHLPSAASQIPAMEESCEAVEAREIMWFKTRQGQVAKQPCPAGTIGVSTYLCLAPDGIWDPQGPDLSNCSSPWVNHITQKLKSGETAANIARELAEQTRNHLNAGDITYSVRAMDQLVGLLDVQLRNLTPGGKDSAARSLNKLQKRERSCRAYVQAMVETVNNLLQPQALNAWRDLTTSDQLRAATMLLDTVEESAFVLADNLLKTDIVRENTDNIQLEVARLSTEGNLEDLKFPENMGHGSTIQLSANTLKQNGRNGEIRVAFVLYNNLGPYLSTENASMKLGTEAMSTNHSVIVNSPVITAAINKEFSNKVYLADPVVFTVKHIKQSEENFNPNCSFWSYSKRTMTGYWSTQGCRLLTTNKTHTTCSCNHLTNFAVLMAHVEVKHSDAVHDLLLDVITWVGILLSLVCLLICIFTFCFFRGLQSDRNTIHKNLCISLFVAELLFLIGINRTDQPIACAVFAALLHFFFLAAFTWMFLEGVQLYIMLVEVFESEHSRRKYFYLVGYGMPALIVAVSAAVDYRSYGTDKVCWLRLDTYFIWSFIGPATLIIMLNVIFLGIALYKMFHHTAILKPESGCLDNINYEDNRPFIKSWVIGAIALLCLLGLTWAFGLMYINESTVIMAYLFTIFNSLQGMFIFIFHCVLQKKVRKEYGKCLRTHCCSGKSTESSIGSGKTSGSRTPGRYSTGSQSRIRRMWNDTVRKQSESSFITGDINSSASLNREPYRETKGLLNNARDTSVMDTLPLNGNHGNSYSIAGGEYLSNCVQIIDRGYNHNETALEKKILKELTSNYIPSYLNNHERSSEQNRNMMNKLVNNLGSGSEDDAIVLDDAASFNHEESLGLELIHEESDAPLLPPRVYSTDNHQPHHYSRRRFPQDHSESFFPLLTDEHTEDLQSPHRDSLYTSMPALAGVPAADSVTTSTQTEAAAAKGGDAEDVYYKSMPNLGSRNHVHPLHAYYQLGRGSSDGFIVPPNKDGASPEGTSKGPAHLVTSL"},
  "source": "paper PMC4838878",
  "key": {"[1]": {"target": "HA-Unc5D mono-Venus fusion protein (HA-Unc5D-mV) (rat) (UniProt F1LW30)", "experiment": "co-IP; lysate of HEK293T cells co-transfected with FLRT2, Lphn3 and Unc5D constructs; mV-fused bait precipitated with rabbit anti-GFP antibody and protein G sepharose; 1% Triton X-100, 50 mM Tris-HCl pH 7.5, 150 mM NaCl; blots with anti-Flag, anti-HA, anti-Myc"}, "[2]": {"target": "Myc-Lphn3-mV (mouse) (UniProt Q80TS3)", "experiment": "co-IP; lysate of HEK293T cells co-transfected with FLRT2, Lphn3 and Unc5D constructs; mV-fused bait precipitated with rabbit anti-GFP antibody and protein G sepharose; 1% Triton X-100, 50 mM Tris-HCl pH 7.5, 150 mM NaCl; blots with anti-Flag, anti-HA, anti-Myc"}},
  "note": "No constants are given. Whether binding was seen depends on the method and setting. In cells and extracts the contact can be indirect. Some binding calls cover weakened binding; strength is not graded here. Where a sequence is shown, tags or fusion partners need not be part of it.",
  "data": [
    {"binder": "FLAG-FLRT2 (N-terminal FLAG tag, C-terminal Avitag) (receptor, UniProt Q8BLU0 35-660) ACPSVCRCDRNFVYCNERSLTSVPLGIPEGVTVLYLHNNQINNAGFPAELHNVQSVHTVYLYGNQLDEFPMNLPKNVRVLHLQENNIQTISRAALAQLLKLEELHLDDNSISTVGVEDGAFREAISLKLLFLSKNHLSSVPVGLPVDLQELRVDENRIAVISDMAFQNLTSLERLIVDGNLLTNKGIAEGTFSHLTKLKEFSIVRNSLSHPPPDLPGTHLIRLYLQDNQINHIPLTAFANLRKLERLDISNNQLRMLTQGVFDHLSNLKQLTARNNPWFCDCSIKWVTEWLKYIPSSLNVRGFMCQGPEQVRGMAVRELNMNLLSCPTTTPGLPVFTPAPSTVSPTTQSPTLSVPSPSRGSVPPAPTPSKLPTIPDWDGRERVTPPISERIQLSIHFVNDTSIQVSWLSLFTVMAYKLTWVKMGHSLVGGIVQERIVSGEKQHLSLVNLEPRSTYRICLVPLDAFNYRTVEDTICSEATTHASYLNNGSNTASSHEQTTSHSMGSPFLLAGLIGGAVIFVLVVLLSVFCWHMHKKGRYTSQKWKYNRGRRKDDYCEAGTKKDNSILEMTETSFQIVSLNNDQLLKGDFRLQPIYTPNGGINYTDCHIPNNMRYCNSSVPDLEHCHT", "values": [
      {"measurement": "binding", "setting": "[1]", "value": "binds"},
      {"measurement": "binding", "setting": "[2]", "value": "binds"}
    ]}
  ]
}
